We go through 16 compounds from PubChem BioAssay AID260 (DTP/NCI, 2004).

In the experiment the test system is CD2F1 mice, intracerebral L1210 leukemia, survival T/C. Nature of the experiment: NCI In Vivo Anticancer Drug Screen. Data for tumor model L1210 Leukemia (intracerebral) in CD2F1 (CDF1) mice. As to conditions: higher T/C = longer survival. The procedure: The antitumor activity of compounds was measured in mice bearing transplantable tumors. Survival or tumor size were measured and the results are expressed as the measurement made in the treated group (T) divided by the measurement made in the vehicle treated control group (C). The tumor model used in this assay is L1210 Leukemia (intracerebral) in CD2F1 (CDF1) mice

Where [1] appears, read: T/C endpoint: median survival time, dose: 3.0 mg/kg/injection, schedule: Q01DX009 (ip), vehicle: saline.
The mark [2] stands for this setting: T/C endpoint: median survival time, dose: 1.5 mg/kg/injection, schedule: Q01DX009 (ip), vehicle: saline.
Setting [3] is: T/C endpoint: median survival time, dose: 100.0 mg/kg/injection, schedule: Q01DX009 (ip), vehicle: saline.

The structures appear in SMILES notation. The list shows only some results of the screen, not a fair sample: it gathers tests that were run many times, whatever their T/C, doses with no T/C, and many T/C values between a quarter and a half above the control. Other doses and runs of a compound stand elsewhere. T/C: endpoint of the treated group in % of that of the vehicle group. Some doses have a count of surviving animals in place of a T/C: the source holds a T/C of zero for them, seemingly a mark for toxic or unscored doses. Some doses without a T/C left all or most animals alive at the check, yet need not have been tolerated: survival well below the control is almost never listed, so the zero probably covers shortened survival too. Survivors were counted at the toxicity check, usually on the fifth day, unless a day is given; later deaths do not show. Schedules are NCI's codes, read here as Q, the interval in days (D) or hours (H), X, the number of doses. Some doses were run more than once; the results are listed from low to high. For survival time, this PubChem deposit counts one and a half times the control or more as active, and values a quarter to a half above the control carry no call in these data; other NCI protocols may use other cut-offs. Some T/C values carry the count of animals alive at the toxicity check (mostly the fifth day); without a count, all were alive then. Marks such as (2×) count equal records among those shown.

On to `NC(C/[N+]([O-])=N/O)C(=O)O` (stereo not given), for which the survivor count by setting is: (T/C endpoint: median survival time, dose: 400.0 mg/kg/injection, schedule: Q01DX009 (ip), vehicle: Klucel (hydroxypropylcellulose) (HPC)) 6 of 6; (T/C endpoint: median survival time, dose: 450.0 mg/kg/injection, schedule: Q01DX009 (ip), vehicle: saline) 5 of 6; (T/C endpoint: median survival time, dose: 800.0 mg/kg/injection, schedule: Q01DX009 (ip), vehicle: Klucel (hydroxypropylcellulose) (HPC)) 4 of 6 and 6 of 6; (T/C endpoint: median survival time, dose: 900.0 mg/kg/injection, schedule: Q01DX009 (ip), vehicle: saline) 5 of 6.
For `CN(N=O)C(=O)N[C@@H](C=O)[C@@H](O)[C@H](O)[C@H](O)CO`, the survivor count (T/C endpoint: mean survival time, dose: 400.0 mg/kg/injection, schedule: Q01DX005 (ip), vehicle: saline) is given as 5 of 6.
On to `COC(COC(=O)N1CCN(C=O)CC1)C1=C(N2CC2)C(=O)C(C)=C(N2CC2)C1=O` (stereo not given), for which the T/C under setting [1] was 125 % of control [9 of 10 alive]. Moreover, the survivor count (T/C endpoint: median survival time, dose: 12.0 mg/kg/injection, schedule: Q01DX009 (ip), vehicle: saline) is listed as 10 of 10.
Consider `CN(C)N=Nc1ccccc1`, for which the T/C (T/C endpoint: mean survival time, dose: 25.0 mg/kg/injection, schedule: Q01DX009 (ip), vehicle: Klucel (hydroxypropylcellulose) (HPC)) is 127 and 147 % of control. The survivor count was 0 of 6, 1 of 6, 2 of 6 (T/C endpoint: mean survival time, dose: 100.0 mg/kg/injection, schedule: Q01DX009 (ip), vehicle: Klucel (hydroxypropylcellulose) (HPC)) and 0 of 6 (T/C endpoint: mean survival time, dose: 200.0 mg/kg/injection, schedule: Q01DX009 (ip), vehicle: Klucel (hydroxypropylcellulose) (HPC)).
Regarding `O=C(Nc1ccccc1)c1c(O)[nH]c(=S)[nH]c1=O`, under “T/C endpoint: median survival time, dose: 100.0 mg/kg/injection, schedule: Q01DX009 (ip), vehicle: saline with Tween-80”, the T/C is 128 % of control. Besides, for the setting “T/C endpoint: median survival time, dose: 200.0 mg/kg/injection, schedule: Q01DX009 (ip), vehicle: saline with Tween-80”, the survivor count is 3 of 6.
Consider `CN(Cc1ccccc1)/N=N/c1nc[nH]c1C(N)=O`, for which the T/C (T/C endpoint: median survival time, dose: 64.0 mg/kg/injection, schedule: Q01DX005 (ip), vehicle: saline with Tween-80) is 142 % of control; the T/C (T/C endpoint: median survival time, dose: 128.0 mg/kg/injection, schedule: Q01DX005 (ip), vehicle: saline with Tween-80) is 144 % of control; the T/C (T/C endpoint: median survival time, dose: 256.0 mg/kg/injection, schedule: Q01DX005 (ip), vehicle: saline with Tween-80) was 135 % of control.
Take `CCC(=O)O[C@H]1CC[C@H]2[C@@H]3CC[C@H]4CC(=O)[C@H](C)C[C@]4(C)[C@H]3CC[C@]12C`: the T/C runs as follows: (T/C endpoint: median survival time, dose: 16.0 mg/kg/injection, schedule: Q01DX009 (ip), vehicle: saline with Tween-80) 129 % of control; (T/C endpoint: median survival time, dose: 32.0 mg/kg/injection, schedule: Q01DX009 (ip), vehicle: saline with Tween-80) 129 % of control; (T/C endpoint: median survival time, dose: 128.0 mg/kg/injection, schedule: Q01DX009 (ip), vehicle: saline with Tween-80) 132 % of control; (T/C endpoint: median survival time, dose: 256.0 mg/kg/injection, schedule: Q01DX009 (ip), vehicle: saline with Tween-80) 130 % of control.
For the compound `Nc1ccn([C@@H]2C=C(CO)[C@@H](O)[C@H]2O)c(=O)n1`, the T/C is 130 % of control (T/C endpoint: median survival time, dose: 0.67 mg/kg/injection, schedule: Q01DX009 (ip), vehicle: saline); 134 and 141 % of control (T/C endpoint: median survival time, dose: 1.0 mg/kg/injection, schedule: Q01DX009 (ip), vehicle: saline); 141 and 145 % of control under setting [2]; 144 % of control (T/C endpoint: median survival time, dose: 2.25 mg/kg/injection, schedule: Q01DX009 (ip), vehicle: saline).
As for `CNc1nc(N(C)C)nc(N(C)C)n1`, the T/C was 93, 100, 109 % of control (2×) (T/C endpoint: median survival time, dose: 25.0 mg/kg/injection, schedule: Q01DX009 (ip), vehicle: saline); 102, 103, 106, 110 % of control (T/C endpoint: median survival time, dose: 50.0 mg/kg/injection, schedule: Q01DX009 (ip), vehicle: saline); 95, 109, 113 % of control under setting [3]. The survivor count is 6 of 6 under setting [3]; 5 of 6 and 6 of 6 (T/C endpoint: median survival time, dose: 200.0 mg/kg/injection, schedule: Q01DX009 (ip), vehicle: saline).
As to `O=S1(=O)CS(=O)(=O)OCCO1`, the T/C (T/C endpoint: median survival time, dose: 6.25 mg/kg/injection, schedule: Q01DX009 (ip), vehicle: Klucel (hydroxypropylcellulose) (HPC)) is 143 % of control.
For the compound `CC(CN1CC(=O)NC(=O)C1)N1CC(=O)NC(=O)C1` (stereo not given), the T/C reads like this: (T/C endpoint: mean survival time, dose: 16.0 mg/kg/injection, schedule: Q01DX009 (ip), vehicle: Klucel (hydroxypropylcellulose) (HPC)) 140 % of control; (T/C endpoint: mean survival time, dose: 100.0 mg/kg/injection, schedule: Q04DX003 (ip), vehicle: steroid suspending solution) 131 % of control; (T/C endpoint: mean survival time, dose: 128.0 mg/kg/injection, schedule: Q01DX009 (ip), vehicle: Klucel (hydroxypropylcellulose) (HPC)) 142 % of control; (T/C endpoint: mean survival time, dose: 400.0 mg/kg/injection, schedule: Q04DX003 (ip), vehicle: steroid suspending solution) 141 % of control [7 of 8 alive]; (T/C endpoint: mean survival time, dose: 800.0 mg/kg/injection, schedule: Q04DX003 (ip), vehicle: steroid suspending solution) 147 % of control.
Consider `C[C@]12CCC(=O)C=C1CC[C@@H]1[C@@H]2[C@@H](O)C[C@@]2(C)[C@H]1CC[C@]2(O)C(=O)COP(=O)(O)OCC1OC(n2ccc(N)nc2=O)C(O)C1O` (stereo not given in full), for which the T/C reads like this: (T/C endpoint: median survival time, dose: 37.5 mg/kg/injection, schedule: Q01DX005 (ip), vehicle: other) 130 % of control; (T/C endpoint: median survival time, dose: 75.0 mg/kg/injection, schedule: Q01DX005 (ip), vehicle: other) 148 % of control.
On to `CCCCCCCCCCCCCCCCCC(=O)Nc1ccn(C2OC(CO)C(O)C2O)c(=O)n1` (stereo not given), for which the T/C (T/C endpoint: median survival time, dose: 12.5 mg/kg/injection, schedule: Q01DX009 (ip), vehicle: saline with Tween-80) was 144 % of control.
For `COC(=O)NC1=C(N2CC2)C(=O)C(NC(=O)OC)=C(N2CC2)C1=O`, the T/C reads like this: under setting [2], 134 and 138 % of control [9 of 10 alive]; under setting [1], 130 % of control. In addition, the survivor count was 9 of 10 under setting [1]; 2 of 10 and 8 of 10 (T/C endpoint: median survival time, dose: 6.0 mg/kg/injection, schedule: Q01DX009 (ip), vehicle: saline).
Turning to `C1CN(P2(N3CC3)=NP(N3CC3)(N3CC3)=NP(N3CC3)(N3CC3)=N2)CCO1` (stereo not given), the survivor count is, setting by setting: (T/C endpoint: median survival time, dose: 160.0 mg/kg/injection, schedule: Q01DX001 (ip), vehicle: saline) 9 of 10; (T/C endpoint: median survival time, dose: 320.0 mg/kg/injection, schedule: Q01DX001 (ip), vehicle: saline) 10 of 10.
Regarding `CC1(C)N=C(N)N=C(N)N1c1ccc(OCc2ccc(C(=O)Nc3cccc(S(=O)(=O)F)c3)cc2)c(Cl)c1`, the survivor count is, setting by setting: (T/C endpoint: mean survival time, dose: 200.0 mg/kg/injection, schedule: Q04DX003 (ip), vehicle: saline) 2 of 6; (T/C endpoint: mean survival time, dose: 400.0 mg/kg/injection, schedule: Q04DX003 (ip), vehicle: saline) 1 of 6.
